Results as given in patent publication US20150240311A1.
These are yes or no findings as the source states them, for the method shown. In cells and extracts the contact can be indirect. Some entries that bind do so weakly or less than the wild type. Where a sequence is shown, tags or fusion partners need not be part of it.

Legend:
HA-EBF3 [1] = molecular target: T1, HA-EBF3 (UniProt Q9H4W6); assay: co-immunoprecipitation and immunoblotting, HA-EBF and FLAG-tagged fusion expressed in HEK293 cells, 24 hour post-transfection
T1 sequence (looked up): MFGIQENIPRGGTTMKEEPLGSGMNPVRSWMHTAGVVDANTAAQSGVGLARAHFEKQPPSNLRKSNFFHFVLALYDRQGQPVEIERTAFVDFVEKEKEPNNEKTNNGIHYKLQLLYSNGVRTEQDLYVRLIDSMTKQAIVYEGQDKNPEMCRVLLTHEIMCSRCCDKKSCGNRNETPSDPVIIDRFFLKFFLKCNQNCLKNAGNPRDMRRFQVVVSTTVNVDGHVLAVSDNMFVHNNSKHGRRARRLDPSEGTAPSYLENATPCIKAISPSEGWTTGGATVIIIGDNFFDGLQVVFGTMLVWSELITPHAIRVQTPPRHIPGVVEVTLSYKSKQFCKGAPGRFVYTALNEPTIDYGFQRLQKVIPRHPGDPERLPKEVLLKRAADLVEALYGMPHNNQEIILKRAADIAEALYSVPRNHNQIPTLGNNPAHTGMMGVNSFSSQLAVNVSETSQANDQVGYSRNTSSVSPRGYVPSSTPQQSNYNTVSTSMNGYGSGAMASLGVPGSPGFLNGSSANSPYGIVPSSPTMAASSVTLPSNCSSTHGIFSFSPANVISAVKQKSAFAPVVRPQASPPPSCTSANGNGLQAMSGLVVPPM

HA-EBF3 [2] = molecular target: T1, HA-EBF3; assay: co-immunoprecipitation, HA-EBF and FLAG-tagged fusion expressed in HEK293 cells

B1: FLAG-UBR5-ZNF423 fusion protein (protein, not shown: small tags and cut ends)
chain: MTEEGINHECKLCNQMFDSPAKLLCHLIEHSFEGMGGTFKCPVCFTVFVQANKLQQHIFAVHGQEDKIYDCSQCPQKFFFQTELQNHTMSQHAQ
binding (HA-EBF3 [1]): binds | binding (HA-EBF3 [2]): binds
